Measurements published in patent US20120277269A1 (priority 2008, published 2012).

Test system: patients with atrial fibrillation at risk of stroke
Description: Median follow-up was 2.0 years and the primary outcome was stroke or systemic embolism.
Patients were recruited from 951 clinical centers in 44 countries. In brief, patients were eligible if they had atrial fibrillation documented on electrocardiogram at screening or within 6 months; and at least one of the following: prior stroke or transient ischemic attack; left ventricular ejection fraction less than 40%; New York Heart Association heart failure symptoms of Class 2 or greater within 6 months; age at least 75 years; or age at least 65 years with diabetes mellitus, hypertension or coronary artery disease.
The time in therapeutic range was calculated by the method of Rosendaal (Rosendaal F R, et al., A method to determine the optimal intensity of oral anticoagulant therapy, Thromb Haemost, 1993, 69:236-239), excluding INRs from the first week and after discontinuations. […] Concomitant use of aspirin (less than 100 mg/day) or other antiplatelet agents was allowed.
Liver function testing was performed monthly during the first year of follow-up.
The primary study outcome was stroke or systemic embolism. The primary safety outcome was major hemorrhage. Secondary outcomes were stroke, systemic embolism and death. Other outcomes were myocardial infarction, pulmonary embolism, transient ischemic attacks, and hospitalizations. The primary net benefit-risk outcome was the composite of stroke, systemic embolism, pulmonary embolism, myocardial infarction, death or major hemorrhage. Stroke was defined as sudden onset of focal neurological deficit consistent with the territory of a major cerebral artery and categorized as ischemic, hemorrhagic or unspecified. Hemorrhagic transformation of ischemic stroke was not considered as hemorrhagic stroke. Intracranial hemorrhage included hemorrhagic stroke and sub-dural or sub-arachnoid hemorrhage. Systemic embolism was an acute vascular occlusion of an extremity or organ documented by imaging, surgery or autopsy. […]

Row | Compound | Mean time in therapeutic range (INR 2.0 to 3.0) (patients on warfarin) [%] | Rate of discontinuation at 2.5 years (dabigatran 110 mg) [%] | Rate of discontinuation at 2.5 years (dabigatran 150 mg) [%]
1 | CC(=O)CC(c1ccccc1)c1c(O)c2ccccc2oc1=O (racemic) [Warfarin, 3-(α-acetonylbenzyl)-4-hydroxycoumarin] | 64 | – | –
2 | Cn1c(CNc2ccc(C(=N)N)cc2)nc2cc(C(=O)N(CCC(=O)O)c3ccccn3)ccc21 [Dabigatran] | – | 23 | 25

Like-named read-outs stand apart in the source and are kept apart here.
